PubChem BioAssay AID1347423 (Functional Genomics Laboratory (NCATS/FGL), 2020)
About 210 (0.4%) of roughly 52,000 sequences were called active.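 The calls were made as follows: active = gene whose silencing raises cell survival under the drug, median off-target-corrected z-score across its silencing RNAs 2 or more; inactive = the rest.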 Some of the results follow.

Experiment: Resistance to Poly (ADP-Ribose) Polymerase inhibitor: Gene Identification via Genome-wide siRNA Screen
Conditions: mouse BRCA2 R2336H ES cells, olaparib, CellTiter-Glo viability; active compounds read high
Procedure, shortened: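 Mouse BRCA2 R2336H ES cells were reverse-transfected with siRNA (20 nM final), treated at 48 h with 500 nM olaparib, and read by CellTiter-Glo after 72 h. Scores: MAD-based z per siRNA, median per gene, seed off-target correction.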

| Sequence | z-score |
| --- | --- |
| GCCACCAAACGAUGGUAUCTT against D5Ertd40e | inactive: -1.94 |
| UGCUGGUGUCGUUAUGAAGTT against Pla2g12a | inactive: -1.29 |
| CCUUAUGGCCUACGACUUCTT against Chit1 | inactive: -0.482 |
| CGUUGCUGAGAACGAGUCGTT against Pomc1 | inactive: -0.338 |
| CCAGUCGUGAACUUGAAAGTT against 2410016F19Rik | inactive: 0.448 |
| GGCCAGUUUAUGGGAUUUUTT against 2610039C10Rik | inactive: -1.46 |
| GGUUCAAAUGUUCUCCAUATT against 9530080O11Rik | inactive: 1.23 |
| GGUGGAGCUGCUAUCACAUTT against AI848100 | inactive: -0.215 |
| GGCCAAUAUAGGUUAUAGATT against Anapc11 | inactive: 1.79 |
| GGUCUCAAGGACAAAAAAGTT against Sult3a1 | inactive: 1.19 |
| GCAUCAUGGUCACAAAUGGTT against Ncr1 | inactive: -0.546 |
| GGUGAAUUUCCUUCUACAUTT against Tas1r1 | inactive: 0.18 |
| GGAGCUAAUGGAAAACGGCTT against Lcn7 | inactive: 0.234 |
| CCUUACCCUGUGUAUCUUUTT against Nat6 | inactive: -1.31 |
| CCCUUGCUUGCUAAGAUUUTT against 1200016D23Rik | inactive: -0.709 |
| GCACCGAGUGGAAUAAUCATT against C820005L12Rik | inactive: 0.498 |
| GGACAAUGGAGCUCAAGUCTT against 2310042G06Rik | inactive: 0.406 |
| GGUGAUGCAAGUGGUUCGGTT against Elmo3 | inactive: -0.641 |
| GGAGUGAACCUUUGAAAGUTT against Rbak | inactive: 0.696 |
| GGUUGGACACGAAAGCUUATT against Mecp2 | inactive: -3.23 |
| GGACAGCCAUCUUGAUUUATT against Gstt2 | inactive: -0.269 |
| GCUACAAUCUAGAACAAGATT against Olfr361 | inactive: 0.116 |
| GGCGAAGGGCAAGAAUAAATT against Hes1 | inactive: 0.252 |
| GGAGAACCCAUUAAAGAAATT against Amd1 | inactive: -0.0366 |
| CCUAGUGAUUAAAGGGAUGTT against Tessp3 | inactive: -1.92 |
| GGUCUUGGUAUCAUAUAUGTT against D0H4S114 | inactive: 0.754 |

| Sequence | z-score |
| --- | --- |
| GGAUCCUUCUCUGAAGCAGTT against Olfr657 | inactive: -2.03 |
| GGACUAUGGCAAAGAAUCUTT against Rps12 | inactive: -3.24 |
| GGUUUGUGAAUCUUAUCUCTT against 5830482G23Rik | inactive: -0.654 |
| CGCGAAGGGAAGGGUUGUATT against Pfn4 | inactive: -1.45 |
| CCAUUCAAUGGUAACUGAATT against Olfr973 | inactive: -1.95 |
| GGUCGACUUAAGAUAAUAATT against Itgb6 | active: 1.94 |
| GGUGGUUCUCAGCUGUGUATT against Arhgef18 | inactive: -2.26 |
| CGGUGUCACCCAUGUUAUCTT against Arp3b | inactive: -0.351 |
| GCACUUCGAAGAAAUAAAATT against 1110064P04Rik | inactive: 0.941 |
| CCAUUUUGCCUGUGAUAUGTT against Olfr1254 | inactive: 1.02 |
| CCAAGUGGAUCGAAGCCCATT against Pp11r | inactive: 0.899 |
| GGGCUUAUUGGAAGUCAGATT against BC017545 | inactive: -0.858 |
| CGAAAUCCAUAGAUUUACUTT against 4930563E19Rik | inactive: 0.443 |
| GGAUGGAAGCGUAAAUUUCTT against Angpt4 | inactive: 0.186 |
| GCUACAGGUAGACAUUCCATT against Ubn1 | inactive: -1.43 |
| GGACAAGUACCAAGUCAAUTT against Hrasls3 | inactive: 1.07 |
| GGCCAAACCAUCAUGCAAGTT against Nfya | inactive: -1.31 |
| GGUCAAACUUAGCGACAAUTT against Zdhhc8 | inactive: 0.252 |
| GGCAACAUAAUAAUUGCAGTT against Olfr1212 | inactive: -0.599 |
| GCCCUGGAGUCCUAAUAAATT against Pmvk | inactive: -0.657 |
| GCAGCAAUACAUCCUUCAUTT against Cdh1 | inactive: -0.549 |
| CGUUUAUUGUAACCAGAAUTT against BC043098 | inactive: -1.21 |
| GGAAACUGGCUUAGCAAUGTT against Trappc4 | inactive: 0.383 |
| GGUGAGGUUCAAACAUUCUTT against Sdf2 | inactive: 0.584 |
| CCUUCUACUAAUCAAGAGATT against Sparc | inactive: -0.487 |
| CCCUGCUGUCGUUUUGACUTT against Senp3 | inactive: -1.14 |

| Sequence | z-score |
| --- | --- |
| GCAAAUUCUGACUUACUAATT against 4932411E22Rik | inactive: -1.77 |
| GGUUAGUGCUCCAUUAUUCTT against 2810009O15Rik | inactive: 0.772 |
| GGCCUUCAAGGUGUUUGAGTT against Flcn | inactive: -0.739 |
| CGAUAAAAGAGAGAUGAUUTT against Rap1gds1 | inactive: 0.406 |
| GGCAUGCAACUAUAUAGUUTT against Slfn4 | inactive: 0.808 |
| GGCUCUCCAACUGUAUGAATT against MGC78289 | inactive: 0.807 |
| GGGAAAUCUACUUUGCGUATT against Khdrbs3 | inactive: 1.32 |
| CACGCGUCGGCGCAGACUCTT against Hmx2 | inactive: -3.06 |
| GCCUGCACUGAAGUUCAAUTT against Sod2 | inactive: -1.54 |
| GGACGAGCUGUAUUUGAAUTT against Gsk3a | inactive: 0.179 |
| GGCAUGUUCCUCAUAUGCCTT against Lrrc21 | inactive: -0.376 |
| GGAAGCUGAUGAGAAUUACTT against Stx4a | inactive: 1.89 |
| GGAAUCCUGAUGGUGAUGATT against Mttp | inactive: 1.02 |
| GGUCCUAGUCUUUCAGAUGTT against 4930465P12Rik | inactive: -1.76 |
| GGUACCAACGUGUAUGGCATT against Gpaa1 | inactive: -2.05 |
| GGGUCAGGAAAAACAGCGATT against Slc15a1 | inactive: 0.151 |
| GGAAAAAAAAGACCUAGGATT against 1500004A08Rik | inactive: 0.238 |
| GGAUGCUGAGUUUCUGCCATT against Bre | inactive: 0.0658 |
| GGCCUUCUAAAGCUGUGAUTT against 6330403K07Rik | inactive: 0.00546 |
| CCGAUACUUGAACUCUUUUTT against Ctso | inactive: -1.26 |
| GCGGCAACAUUCAAAGUGGTT against Itgb2l | inactive: 0.333 |
| GCCUUUAGGUGUCAGUCCUTT against 1200003I07Rik | inactive: -0.726 |
| GGACCUACGUCUUGUCUCCTT against Greb1 | inactive: 1.25 |
| GGCAGAAGCAAUGAACUAUTT against Npm1 | active: 3.59 |
| CGAACACUAAGCUUUGAUATT against Rab11fip2 | inactive: 0.139 |
| GCUUCAAGCCAUCCGAAUATT against 4931428D14Rik | inactive: -0.944 |

| Sequence | z-score |
| --- | --- |
| CCUAAUAACUGGACUUUAGTT against Spats2 | inactive: -0.669 |
| GGGAAGGAAACCUAGUAAATT against Peg12 | inactive: 0.775 |
| GGAGGUCAGACCAGUUUACTT against Htr3b | inactive: 0.117 |
| GCCUGGAAUGCAGAAUCGATT against Amaco | inactive: -0.132 |
| CCAGCUCAAGCUUUCCACATT against Olfr1105 | inactive: -0.503 |
| CGGAAGAAUAAAAACCGGCTT against 2310005N01Rik | inactive: -0.544 |
| CCACUUACGAGGGCAUUUUTT against A2lp | inactive: -0.833 |
| GGUGGUUAUGAAACUAUCUTT against Jarid1c | inactive: 0.869 |
| GGUUGAAAAUGUUGAUCGUTT against Rhoe | inactive: 0.628 |
| GCUACAAGGAACAUUAAAGTT against Sacs | inactive: 0.758 |
| GGAGGAGGAGCCAGAAAAGTT against Zswim2 | inactive: -0.67 |
| GGAAGCUACCUGGAUAUCUTT against Astn2 | inactive: -1.84 |
| CCCGAACCAAGGACAAGUATT against Cdx1 | inactive: -0.826 |
| CCACUGUCCCAAACAUGUUTT against Olfr847 | inactive: 0.228 |
| GCAGAAGGUACUACUAUCGTT against BC025872 | inactive: 0.919 |
| GCACGGUGGUUCUAAAAGATT against Skiip | inactive: -2.57 |
| CCAAACUUACAAAUAUGCGTT against Sgpp1 | active: 3.3 |
| GGGCUGCUCAAAGUUUUUGTT against Myadm | inactive: -0.669 |
| GGGAAGAAACAUCAGACUATT against Sf3a2 | inactive: -2.83 |
| CCAUCACGGAUAAUCAUCGTT against 4931417E11Rik | inactive: 0.214 |
| GGAGAGGGUCUUAGUCAGATT against Wasf1 | inactive: 0.651 |
| GAUCCUCAUCACAUCCGUGTT against Olfr461 | inactive: 0.773 |
| GGAUUCGAUUCUUCCAAAATT against Peli2 | inactive: -1.02 |
| GGUUGUUAAGGACAAAGCATT against Cox5a | inactive: 0.0429 |
| GGAACAGGCCGAGUUAGUATT against Olfr414 | inactive: 0.235 |
| GCAAUGGCUACGAAACACATT against Adam2 | inactive: 2.21 |

6 successive records out of the list so far:

| Sequence | z-score |
| --- | --- |
| GCCUUUAGGUGUCAGUCCUTT against 1200003I07Rik | inactive: -0.726 |
| GGACCUACGUCUUGUCUCCTT against Greb1 | inactive: 1.25 |
| GGCAGAAGCAAUGAACUAUTT against Npm1 | active: 3.59 |
| CGAACACUAAGCUUUGAUATT against Rab11fip2 | inactive: 0.139 |
| GCUUCAAGCCAUCCGAAUATT against 4931428D14Rik | inactive: -0.944 |
| CCUAAUAACUGGACUUUAGTT against Spats2 | inactive: -0.669 |
